Drawing on PMC7819943, “Rice protein-binding microarrays: a tool to detect cis-acting elements near promoter regions in rice”, this text covers binding signal for 42 sequences.

The list shows a part of the results.

The target of this experiment is T1, OsSMF1 (Oryza sativa, UniProt Q6ZLB0 1-436).
T1 sequence: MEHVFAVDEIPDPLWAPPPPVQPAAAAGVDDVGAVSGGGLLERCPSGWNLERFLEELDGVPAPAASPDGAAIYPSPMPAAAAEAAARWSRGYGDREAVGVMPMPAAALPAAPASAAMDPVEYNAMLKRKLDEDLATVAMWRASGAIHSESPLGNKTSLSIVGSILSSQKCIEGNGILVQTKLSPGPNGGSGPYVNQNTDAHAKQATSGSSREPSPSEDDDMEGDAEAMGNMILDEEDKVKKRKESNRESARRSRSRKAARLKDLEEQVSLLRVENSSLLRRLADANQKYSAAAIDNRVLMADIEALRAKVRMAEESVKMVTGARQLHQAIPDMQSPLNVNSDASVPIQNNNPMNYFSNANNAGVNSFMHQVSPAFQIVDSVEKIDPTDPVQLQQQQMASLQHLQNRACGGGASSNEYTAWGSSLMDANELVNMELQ
The experiment in a line: protein-binding microarray (RPBM); PBS, 2% BSA, 51.3 ng/ul salmon testes DNA, 50 uM zinc acetate, 200 nM TF, 25 C, 1 h; high values mean tight binding. The settings on record: protein: recombinant; tags: N-terminal polyhistidine and DsRed monomer fusion (pET32a); chain copies: 2; label: CyDye5-dUTP incorporated in the synthesized complementary strand; 3' TTTTT single-stranded linker to array surface; dsDNA, one strand shown. The essentials: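 Transcription factors were made in E. coli BL21-CodonPlus as N-terminal fusions to a polyhistidine tag and DsRed, then purified on Ni–NTA. After primer extension with Cy5-dUTP and blocking with 2% BSA, a custom Agilent array was exposed for 1 h at 25 °C to 200 nM protein in PBS, 2% BSA, salmon testes DNA and 50 µM zinc acetate. Washed arrays were scanned on an Axon 4000B, and the binding signal is per-feature fluorescence intensity in arbitrary units.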
In the case of “GGCGGGGAGCCGTACACCAGCGTCAGCCCCAATCGCGGCACGGAGTCACCTAGTGCAG”, the binding signal was 4470 fluorescence intensity (a.u.).
In the case of “AGCAGCGTGATATGACGATCTATTTGTCCACTCCATATTGCGGAGTCACCTAGTGCAG” it was 3260 fluorescence intensity (a.u.); in that of “CATTGGAATTGATGATCACATTATACATGGATTTGACCCACGGAGTCACCTAGTGCAG”, 3300 fluorescence intensity (a.u.); in that of “GCCTCCCCATCGCGCTGCCACCTCCGCCTCCCGCCGTCCCCGGAGTCACCTAGTGCAG”, 3920 fluorescence intensity (a.u.).
In the case of “ACGGGCTCGTCGAGCTGCTCTGGTGCAATGGCCACGTCATCGGAGTCACCTAGTGCAG” it was 28400 fluorescence intensity (a.u.).
Then “CCAAAACACACATCATTTTCTAGGACTTGAAATTAAGTTCCGGAGTCACCTAGTGCAG”, with 13600 fluorescence intensity (a.u.); and “CGGGATGCGGAGGACACGTCGACTCTGCGCACCCGCTTTTCGGAGTCACCTAGTGCAG”, with 7970 fluorescence intensity (a.u.).
“CTGGCATTGACACGGTACGCGTCATCGACGGTAGACCGCGCGGAGTCACCTAGTGCAG”: the binding signal is 7840 fluorescence intensity (a.u.).
“GGTGGTGTTGTTGGTGGTGCAGTTCTTGGAGTCACATGGTCGGAGTCACCTAGTGCAG”: the binding signal is 3850 fluorescence intensity (a.u.).
On to “GTTTCCCAAATCATCAAAGAAGGTGATTTGCATCGATCTTCGGAGTCACCTAGTGCAG”, for which the binding signal is 3170 fluorescence intensity (a.u.).
In the case of “TTTATTAATATATATATATATATATATATATATATATATACGGAGTCACCTAGTGCAG” it was 7400 fluorescence intensity (a.u.); in that of “TCGACCCGCCCTCCCCGTCGACGAGCTCCAGCGCGGCGCCCGGAGTCACCTAGTGCAG”, 4320 ± 159 fluorescence intensity (a.u.); in that of “TCACTGTCACACATGATGACCCCGCTCACATCATCACTTACGGAGTCACCTAGTGCAG”, 4160 fluorescence intensity (a.u.).
As to “ACCTACTAATAACTAGTTAATTGTCTATTGTGCCCCTAGTCGGAGTCACCTAGTGCAG”, the binding signal was 13700 fluorescence intensity (a.u.).
Consider “TGTCCATGGTTTGTTGCTGCTGCGGTGGCACCAGTGCTGCCGGAGTCACCTAGTGCAG”, for which the binding signal is 7940 fluorescence intensity (a.u.).
In the case of “CTATACTATTAATATATGGTCCCACCTGTCATATACACAGCGGAGTCACCTAGTGCAG”, the binding signal was 3360 fluorescence intensity (a.u.).
Consider “GAGCATGAGCGAACATCGATGAAGGATGAAAATTGTAGGGCGGAGTCACCTAGTGCAG”, for which the binding signal was 4260 fluorescence intensity (a.u.).
Regarding “CCGTCCCCGTCGAGTCGCCGTGTCCGACGCCTTCGCCTCCCGGAGTCACCTAGTGCAG”, the binding signal is 3740 fluorescence intensity (a.u.).
In the case of “TCTTCTTGCTATGTGTGCTCTCTACATTTGCTGCCGTGGACGGAGTCACCTAGTGCAG”, the binding signal is 30700 fluorescence intensity (a.u.).
Then “GAGATTCTCGTCTGTTTAGTTGATCTGATCTGACAATTTGCGGAGTCACCTAGTGCAG”, with 3500 fluorescence intensity (a.u.); and “TTGAAAGTATGATTCCAAGAAACAATTCTTATGTTACATTCGGAGTCACCTAGTGCAG”, with 28400 fluorescence intensity (a.u.).
For the sequence “TGCTTCGTCTTCCACTGCAGCTGACTCACATGGCCAAACACGGAGTCACCTAGTGCAG”, the binding signal was 8760 fluorescence intensity (a.u.).
Consider “TCAGGTATATAAGCTTTGCAAACAACCAAATAACAGGTACCGGAGTCACCTAGTGCAG”, for which the binding signal was 3940 fluorescence intensity (a.u.).
Consider “GTTACCGTCCTGTTGGCTGGTTATAACCGTTGTTGTCGTTCGGAGTCACCTAGTGCAG”, for which the binding signal was 3200 fluorescence intensity (a.u.).
For the sequence “AGCTTGGTAAGTAAAGTGGTGCCGTGTCGGGTGTGAGGTTCGGAGTCACCTAGTGCAG”, the binding signal was 33900 fluorescence intensity (a.u.).
“CCCAGGACCAACGCCAACCATATGCACAGACTAGTAAACGCGGAGTCACCTAGTGCAG”: the binding signal was 3350 fluorescence intensity (a.u.).
“CGTCTGCCACGTCACTTTCGCCGCCCTCTGGGATGGCGATCGGAGTCACCTAGTGCAG”: the binding signal is 14800 fluorescence intensity (a.u.).
In the case of “GATCTCCTTTACACGTGATGTTGACGTGGCGTTTAGGTGGCGGAGTCACCTAGTGCAG”, the binding signal is 26500 fluorescence intensity (a.u.).
In the case of “TTCCTGCTGCCACGTCAAGACACCATCTGGAAGACTGGAACGGAGTCACCTAGTGCAG” it was 8830 fluorescence intensity (a.u.); in that of “CCACAAGCTGACCTTAAATTACGTGTGGTTGCCGGTTAATCGGAGTCACCTAGTGCAG”, 3260 fluorescence intensity (a.u.); in that of “ATTAGGCACACGTAGGTATGGGATGGGCCAAGCCCATGTGCGGAGTCACCTAGTGCAG”, 3400 fluorescence intensity (a.u.).
Then “AAGTTCCGCCATTGCACACGTGGCGTGATATGAACAGGGACGGAGTCACCTAGTGCAG”, with 12200 fluorescence intensity (a.u.); and “CAAGCGTACAGGTACAGAACACGTAACGTGTCCGGCACTACGGAGTCACCTAGTGCAG”, with 3140 fluorescence intensity (a.u.); and “AGCGAAGTAAGGGTCACATGCATGCATCATGCCGTCCGTCCGGAGTCACCTAGTGCAG”, with 3820 fluorescence intensity (a.u.).
With “TTAGTTAGGATCAATAAATTTATCTCACGAATTATTTAGACGGAGTCACCTAGTGCAG”, the binding signal was 25900 fluorescence intensity (a.u.).
In the case of “TGTTTAGATCTAGTGGTGTAAAGTTTTAGTGTGTCACATCCGGAGTCACCTAGTGCAG”, the binding signal was 4590 fluorescence intensity (a.u.).
“ACATCTTAAACTGCAATGCAACTGCTTAGCATAGTATAAGCGGAGTCACCTAGTGCAG”: the binding signal was 3160 fluorescence intensity (a.u.).
Consider “ACTGAGCTAACAGAGACGATGGGTCATACTGGTGAATCAGCGGAGTCACCTAGTGCAG”, for which the binding signal was 5790 fluorescence intensity (a.u.).
In the case of “AAGACCTGGGGTTACCCATTGCTGATGGCCTTAGCGAGCCCGGAGTCACCTAGTGCAG” it was 6450 fluorescence intensity (a.u.).
As to “TTGGGGAAGGTGGTGGCGCACATTGGATGGGGCAGGAGGGCGGAGTCACCTAGTGCAG”, the binding signal was 3150 fluorescence intensity (a.u.).
For the sequence “AAGAGATCCTTGTGTTTCGGAAGAATTTTGGTTGGTGTATCGGAGTCACCTAGTGCAG”, the binding signal was 23500 fluorescence intensity (a.u.).
In the case of “GCGGGCACGTCACCGGTGGAAAATATGTTTACTCGCCACGCGGAGTCACCTAGTGCAG”, the binding signal is 6340 fluorescence intensity (a.u.).
